Measured values as given in patent EP4793292A1, “POLYPEPTIDE DERIVATIVE, PHARMACEUTICAL COMPOSITION THEREOF AND USE THEREOF” (Biocells (Beijing) Biotech Co., Ltd., priority 2023, dated 2025).
Not every detail of the peptide structures is certain; ends, links or a residue may be inferred.

Test system: rats with spinal cord injury
Assay: Open field activity test in rats after spinal cord injury (SCI) surgery
Format: in vivo
Settings: 2 mg/kg subcutaneous daily, FIG. 3

CC[C@H](C)[C@H](NC(=O)[C@H](CO)NC(=O)[C@H](CCC(=O)O)NC(=O)[C@H](Cc1ccc(O)cc1)NC(=O)[C@H](CCC(=O)O)NC(=O)[C@H](CCC(N)=O)NC(=O)[C@H](CO)NC(=O)[C@H](CC(C)C)NC(=O)[C@H](CCCCNC(=O)COCCOCCNC(=O)COCCOCCNC(=O)CC[C@H](NC(=O)CCCCCCCCCCCCCCCCC(=O)O)C(=O)O)NC(=O)[C@H](CC(C)C)NC(=O)[C@H](CO)NC(=O)[C@H](CC(=O)O)NC(=O)[C@H](CC(N)=O)NC(=O)[C@H](C)NC(=O)[C@H](CCCCN)NC(=O)[C@H](CC(C)C)NC(=O)[C@H](CCCNC(=N)N)NC(=O)[C@H](CCC(=O)O)NC(=O)[C@H](CCSC)NC(=O)[C@H](Cc1c[nH]cn1)NC(=O)[C@H](CCC(=O)O)NC(=O)[C@H](C)NC(=O)[C@H](CCSC)NC(=O)[C@H](CC(=O)O)NC(=O)[C@H](CCCNC(=N)N)NC(=O)[C@H](CCCNC(=N)N)NC(=O)[C@H](CCCNC(=N)N)NC(=O)[C@H](CCC(N)=O)NC(=O)[C@H](CCCNC(=N)N)NC(=O)[C@H](CCCNC(=N)N)NC(=O)[C@H](CCCCN)NC(=O)[C@H](CCCCN)NC(=O)[C@H](CCCNC(=N)N)NC(=O)CN)C(N)=O [PW-337] was tested, and the “increase (%) in movement time” value (weeks 6-8 after surgery compared with day 1 after surgery) was “higher than that in the SCI group” and the “increase (%) in movement distance” value (weeks 6 and 7 after surgery compared with day 1 after surgery) was “higher than that in the spinal cord injury (SCI) group”.
